In article PMC9962204:
No constants are given. Whether binding was seen depends on the method and setting. Binding seen in cells or lysates may run through a third protein. A result given as binding can be weak or reduced; the word gives no strength. Tags and fused reporters may be left off the sequences shown.

By UniProt entry, the sequences of proteins in these tests, tags left out. Where a name states a change or a piece, a line headed by the entry shows the natural chain unless it says otherwise.
UniProt Q9SZY5: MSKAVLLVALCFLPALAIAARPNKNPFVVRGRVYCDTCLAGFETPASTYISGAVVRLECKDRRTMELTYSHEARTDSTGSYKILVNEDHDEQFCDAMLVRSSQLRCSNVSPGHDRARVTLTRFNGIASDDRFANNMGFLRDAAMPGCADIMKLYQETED

Biological target: AtSAH7-nCerulean (BiFC fusion, pSAT4-nCerulean-C) (Arabidopsis thaliana) (UniProt Q9SZY5)
Assay: split reporter; BiFC in living Arabidopsis mesophyll and root protoplasts; AtSBP1 fused to cCFP, AtSAH7 fused to nCerulean; fluorescence microscopy; three independent repetitions

B1: AtSBP1-cCFP (BiFC fusion, pSAT1-cCFP-N1) (protein, UniProt O23264 1-490)
chain: MATETEVVAPVTVSNGGSKGCCKYGGPGYATPLAAMSGPSEKLIYVTAVYTGTGIDKPDYLATVDVDPSSPSYSSVIHRLPMPFVGDELHHSGWNSCSSCHGDASVDRRYLVLPSLISGRIYAIDTKENPRAPSLYKYVDPKEIADKTGLAFPHTAHCLATGEILVSCLGDEEGNAKGNGFLLLDSDFNIKNRWEKPGHSPLYGYDFWYQPRHKTMISTSWGAPKAFSKGFNLQHVADGLYGSHLHVYSWPGGEIKQLIDLGPTGLLPLEIRFLHDPSKDTGFVGSALSSNMIRFFKNSDETWSHEVVISVKPLKVENWILPEMPGLITDFLISLDDRFIYFVNWLHGDIRQYNIEDPKNPVLTGQIWVGGLLQKGSPVKAVGEDGNTFQFEVPQIKGKSLRGGPQMIQLSLDGKRLYATNSLFSAWDRQFYPEIMEKGSHIIQIDVDTEKGGLTINPDFFVDFGDEPDGPSLAHEMRYPGGDCTSDIWI
  binding: binds
